Assay results reported in the supplement of paper PMC6411743.
± gives the standard deviation of the averaged measurements. The list shows a part of the results.

Amino acid sequences for entries named in this document (tags omitted). A change or cut given only in a name is not applied to a line headed by its entry.
UniProt Q6PJW8: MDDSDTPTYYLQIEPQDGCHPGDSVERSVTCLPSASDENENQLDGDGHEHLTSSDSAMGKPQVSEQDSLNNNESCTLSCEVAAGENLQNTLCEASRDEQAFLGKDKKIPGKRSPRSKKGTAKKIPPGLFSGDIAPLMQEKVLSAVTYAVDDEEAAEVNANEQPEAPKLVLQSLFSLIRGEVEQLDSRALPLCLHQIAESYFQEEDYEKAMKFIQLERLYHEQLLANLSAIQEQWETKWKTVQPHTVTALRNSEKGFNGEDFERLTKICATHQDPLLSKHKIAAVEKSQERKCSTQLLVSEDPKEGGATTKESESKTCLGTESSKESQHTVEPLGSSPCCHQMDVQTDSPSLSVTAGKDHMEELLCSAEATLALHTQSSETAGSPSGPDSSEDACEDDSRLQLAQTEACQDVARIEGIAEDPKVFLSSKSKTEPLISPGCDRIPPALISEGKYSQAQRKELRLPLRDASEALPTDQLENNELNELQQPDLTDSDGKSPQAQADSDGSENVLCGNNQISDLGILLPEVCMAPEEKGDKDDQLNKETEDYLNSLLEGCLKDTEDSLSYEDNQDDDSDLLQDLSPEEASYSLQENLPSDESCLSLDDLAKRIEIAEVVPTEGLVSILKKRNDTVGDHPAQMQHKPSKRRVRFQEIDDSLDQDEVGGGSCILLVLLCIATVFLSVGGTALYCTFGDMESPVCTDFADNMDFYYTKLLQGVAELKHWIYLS
UniProt Q86WQ0: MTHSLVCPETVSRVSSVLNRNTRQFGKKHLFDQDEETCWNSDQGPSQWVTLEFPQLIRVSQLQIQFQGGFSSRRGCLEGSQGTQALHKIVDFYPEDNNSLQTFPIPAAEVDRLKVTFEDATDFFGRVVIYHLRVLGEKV
UniProt Q5VWJ9: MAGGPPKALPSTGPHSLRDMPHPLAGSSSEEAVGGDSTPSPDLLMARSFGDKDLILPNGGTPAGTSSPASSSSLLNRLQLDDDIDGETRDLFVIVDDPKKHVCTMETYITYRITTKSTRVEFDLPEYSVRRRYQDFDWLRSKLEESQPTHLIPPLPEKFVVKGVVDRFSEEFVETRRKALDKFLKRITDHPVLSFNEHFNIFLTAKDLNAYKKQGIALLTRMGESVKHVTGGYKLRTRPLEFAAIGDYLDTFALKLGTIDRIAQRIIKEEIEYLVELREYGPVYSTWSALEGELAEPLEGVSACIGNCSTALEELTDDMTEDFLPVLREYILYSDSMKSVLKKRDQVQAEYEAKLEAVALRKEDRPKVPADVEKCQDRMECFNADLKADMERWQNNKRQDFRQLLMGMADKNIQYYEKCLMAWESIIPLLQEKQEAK
UniProt Q86W56: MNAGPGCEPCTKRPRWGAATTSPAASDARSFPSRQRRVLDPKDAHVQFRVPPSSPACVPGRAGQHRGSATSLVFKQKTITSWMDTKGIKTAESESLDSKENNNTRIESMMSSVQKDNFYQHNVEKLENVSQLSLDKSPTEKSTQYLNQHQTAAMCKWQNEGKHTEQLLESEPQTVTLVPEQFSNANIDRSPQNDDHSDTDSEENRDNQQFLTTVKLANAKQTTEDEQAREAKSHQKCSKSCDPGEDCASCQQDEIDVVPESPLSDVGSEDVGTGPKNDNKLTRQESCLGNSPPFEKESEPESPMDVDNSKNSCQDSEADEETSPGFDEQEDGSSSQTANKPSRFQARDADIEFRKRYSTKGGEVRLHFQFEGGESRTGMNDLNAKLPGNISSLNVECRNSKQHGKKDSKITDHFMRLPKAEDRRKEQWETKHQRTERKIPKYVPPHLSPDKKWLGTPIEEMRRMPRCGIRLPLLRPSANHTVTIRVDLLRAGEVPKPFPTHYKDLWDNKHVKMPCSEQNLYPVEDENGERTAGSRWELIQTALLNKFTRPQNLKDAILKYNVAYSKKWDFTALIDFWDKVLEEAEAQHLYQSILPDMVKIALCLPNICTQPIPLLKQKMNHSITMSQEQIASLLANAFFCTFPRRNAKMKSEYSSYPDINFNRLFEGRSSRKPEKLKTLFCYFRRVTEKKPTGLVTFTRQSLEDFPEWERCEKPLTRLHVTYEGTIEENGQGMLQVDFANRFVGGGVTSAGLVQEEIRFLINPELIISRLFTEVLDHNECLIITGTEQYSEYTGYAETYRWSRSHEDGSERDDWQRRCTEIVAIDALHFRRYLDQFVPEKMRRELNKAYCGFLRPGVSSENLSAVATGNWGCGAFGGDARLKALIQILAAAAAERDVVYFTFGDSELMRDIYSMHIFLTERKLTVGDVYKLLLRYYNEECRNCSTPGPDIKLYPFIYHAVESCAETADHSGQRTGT
UniProt Q6DKK2: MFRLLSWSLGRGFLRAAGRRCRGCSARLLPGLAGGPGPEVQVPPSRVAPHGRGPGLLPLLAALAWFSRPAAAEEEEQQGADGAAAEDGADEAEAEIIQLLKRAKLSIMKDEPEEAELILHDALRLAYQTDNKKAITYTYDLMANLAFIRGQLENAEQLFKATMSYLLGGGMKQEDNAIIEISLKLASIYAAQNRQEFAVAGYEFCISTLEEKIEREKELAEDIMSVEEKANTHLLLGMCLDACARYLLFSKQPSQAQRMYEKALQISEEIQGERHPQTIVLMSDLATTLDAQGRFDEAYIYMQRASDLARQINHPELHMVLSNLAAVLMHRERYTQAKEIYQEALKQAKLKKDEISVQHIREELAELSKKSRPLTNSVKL
UniProt Q6UWP2: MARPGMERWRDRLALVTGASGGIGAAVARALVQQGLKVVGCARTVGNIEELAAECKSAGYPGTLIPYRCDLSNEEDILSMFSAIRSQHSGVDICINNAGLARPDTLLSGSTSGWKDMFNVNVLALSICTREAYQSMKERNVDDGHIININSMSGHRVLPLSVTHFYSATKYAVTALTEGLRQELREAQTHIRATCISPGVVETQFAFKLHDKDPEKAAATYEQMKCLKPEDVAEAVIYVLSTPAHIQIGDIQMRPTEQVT
UniProt Q6UN15: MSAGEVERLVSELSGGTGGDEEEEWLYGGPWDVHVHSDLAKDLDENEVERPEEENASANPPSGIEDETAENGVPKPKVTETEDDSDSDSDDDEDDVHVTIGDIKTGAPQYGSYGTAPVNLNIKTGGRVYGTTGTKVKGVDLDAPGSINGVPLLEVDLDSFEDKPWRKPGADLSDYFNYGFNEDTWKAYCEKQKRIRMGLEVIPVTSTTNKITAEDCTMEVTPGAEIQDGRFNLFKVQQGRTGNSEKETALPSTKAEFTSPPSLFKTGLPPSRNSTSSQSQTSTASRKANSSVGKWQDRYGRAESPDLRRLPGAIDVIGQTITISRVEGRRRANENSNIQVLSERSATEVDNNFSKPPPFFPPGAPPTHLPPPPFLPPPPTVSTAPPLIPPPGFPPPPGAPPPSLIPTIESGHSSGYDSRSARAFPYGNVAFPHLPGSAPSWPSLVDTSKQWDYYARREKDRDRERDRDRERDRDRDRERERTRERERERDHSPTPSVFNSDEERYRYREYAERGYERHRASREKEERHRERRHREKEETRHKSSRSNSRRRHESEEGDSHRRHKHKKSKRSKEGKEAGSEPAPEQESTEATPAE
UniProt Q86TP1: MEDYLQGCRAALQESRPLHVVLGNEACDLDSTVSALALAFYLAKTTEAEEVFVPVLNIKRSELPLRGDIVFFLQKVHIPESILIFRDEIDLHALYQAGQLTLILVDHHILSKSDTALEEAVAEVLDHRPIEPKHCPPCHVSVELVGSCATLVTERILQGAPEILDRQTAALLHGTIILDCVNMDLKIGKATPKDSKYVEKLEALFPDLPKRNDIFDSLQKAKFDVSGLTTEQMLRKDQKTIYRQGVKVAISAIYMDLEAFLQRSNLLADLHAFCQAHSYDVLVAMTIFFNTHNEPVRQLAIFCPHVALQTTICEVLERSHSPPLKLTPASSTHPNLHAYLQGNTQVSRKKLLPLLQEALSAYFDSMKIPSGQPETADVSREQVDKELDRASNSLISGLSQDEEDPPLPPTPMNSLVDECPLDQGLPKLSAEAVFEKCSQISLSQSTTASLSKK
UniProt Q5VWZ2: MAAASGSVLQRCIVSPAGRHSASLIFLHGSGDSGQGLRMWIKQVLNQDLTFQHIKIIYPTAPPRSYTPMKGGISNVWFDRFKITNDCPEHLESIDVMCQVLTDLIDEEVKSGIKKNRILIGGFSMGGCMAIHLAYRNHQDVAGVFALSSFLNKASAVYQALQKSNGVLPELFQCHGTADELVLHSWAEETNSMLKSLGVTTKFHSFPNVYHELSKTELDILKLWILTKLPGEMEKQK
UniProt Q86W42: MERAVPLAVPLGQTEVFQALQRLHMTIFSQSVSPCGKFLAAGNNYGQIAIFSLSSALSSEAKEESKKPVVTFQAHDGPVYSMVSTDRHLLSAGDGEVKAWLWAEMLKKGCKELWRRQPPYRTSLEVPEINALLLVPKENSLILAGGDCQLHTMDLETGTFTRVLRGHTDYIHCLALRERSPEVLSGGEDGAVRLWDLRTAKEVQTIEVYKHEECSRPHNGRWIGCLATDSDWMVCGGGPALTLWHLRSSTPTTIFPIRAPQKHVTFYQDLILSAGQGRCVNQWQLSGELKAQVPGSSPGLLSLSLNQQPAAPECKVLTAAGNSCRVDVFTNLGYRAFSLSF
UniProt Q6P2E9: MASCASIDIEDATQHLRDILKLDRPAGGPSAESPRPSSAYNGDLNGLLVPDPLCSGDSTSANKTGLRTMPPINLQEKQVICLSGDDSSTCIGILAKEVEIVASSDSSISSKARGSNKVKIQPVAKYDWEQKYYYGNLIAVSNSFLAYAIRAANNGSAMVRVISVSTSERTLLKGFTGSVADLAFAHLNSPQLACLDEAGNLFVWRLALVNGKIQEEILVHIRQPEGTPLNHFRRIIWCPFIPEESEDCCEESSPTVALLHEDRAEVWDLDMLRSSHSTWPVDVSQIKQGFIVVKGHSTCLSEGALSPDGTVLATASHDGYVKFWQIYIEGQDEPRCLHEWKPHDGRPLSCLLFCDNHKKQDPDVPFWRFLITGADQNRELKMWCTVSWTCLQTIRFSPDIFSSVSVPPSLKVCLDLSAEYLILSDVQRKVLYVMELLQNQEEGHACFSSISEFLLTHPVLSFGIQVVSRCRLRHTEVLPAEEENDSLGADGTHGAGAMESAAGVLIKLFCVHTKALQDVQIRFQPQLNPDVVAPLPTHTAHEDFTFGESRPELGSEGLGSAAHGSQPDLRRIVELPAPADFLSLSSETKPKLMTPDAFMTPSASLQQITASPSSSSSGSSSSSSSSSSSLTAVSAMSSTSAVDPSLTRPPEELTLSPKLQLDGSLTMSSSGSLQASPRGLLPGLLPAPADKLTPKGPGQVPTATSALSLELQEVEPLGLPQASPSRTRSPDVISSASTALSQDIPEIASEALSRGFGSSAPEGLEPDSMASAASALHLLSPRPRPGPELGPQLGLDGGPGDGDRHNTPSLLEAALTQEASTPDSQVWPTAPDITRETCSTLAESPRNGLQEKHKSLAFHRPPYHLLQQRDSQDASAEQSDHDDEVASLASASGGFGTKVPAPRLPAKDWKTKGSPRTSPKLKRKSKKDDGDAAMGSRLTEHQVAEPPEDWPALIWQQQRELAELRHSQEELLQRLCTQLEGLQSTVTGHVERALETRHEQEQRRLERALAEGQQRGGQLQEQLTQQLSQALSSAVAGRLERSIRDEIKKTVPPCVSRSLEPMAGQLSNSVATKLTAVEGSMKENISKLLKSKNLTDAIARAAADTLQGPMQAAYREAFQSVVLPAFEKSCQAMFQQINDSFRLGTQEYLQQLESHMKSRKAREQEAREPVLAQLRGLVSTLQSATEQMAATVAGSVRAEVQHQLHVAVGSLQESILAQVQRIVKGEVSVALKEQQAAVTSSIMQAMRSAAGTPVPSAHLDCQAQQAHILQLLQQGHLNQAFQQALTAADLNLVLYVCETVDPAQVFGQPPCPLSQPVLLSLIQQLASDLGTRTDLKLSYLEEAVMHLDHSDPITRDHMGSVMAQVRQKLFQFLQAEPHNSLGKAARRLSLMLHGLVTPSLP
UniProt Q86TU7: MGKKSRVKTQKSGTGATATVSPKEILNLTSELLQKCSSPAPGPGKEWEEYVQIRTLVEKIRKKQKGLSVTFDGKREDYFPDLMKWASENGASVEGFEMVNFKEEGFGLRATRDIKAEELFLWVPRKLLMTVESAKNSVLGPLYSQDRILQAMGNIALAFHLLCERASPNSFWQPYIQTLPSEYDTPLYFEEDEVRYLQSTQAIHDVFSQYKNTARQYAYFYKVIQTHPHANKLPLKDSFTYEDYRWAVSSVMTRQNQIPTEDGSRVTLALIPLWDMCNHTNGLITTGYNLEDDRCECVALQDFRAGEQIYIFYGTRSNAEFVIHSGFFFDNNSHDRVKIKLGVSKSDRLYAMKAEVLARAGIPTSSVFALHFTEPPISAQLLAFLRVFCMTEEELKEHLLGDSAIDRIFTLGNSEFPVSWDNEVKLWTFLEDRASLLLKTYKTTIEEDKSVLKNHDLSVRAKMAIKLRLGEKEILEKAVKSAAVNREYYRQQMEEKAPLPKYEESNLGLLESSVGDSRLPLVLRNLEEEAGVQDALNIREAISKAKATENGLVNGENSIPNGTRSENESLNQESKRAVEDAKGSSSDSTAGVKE

Compound: Nc1nc2c(ncn2[C@@H]2O[C@H](COP(=O)(O)OP(=O)(O)OP(=O)(O)O)[C@@H](O)[C@H]2O)c(=O)[nH]1 [guanosine triphosphate]
Assay: NP40-soluble protein abundance relative to vehicle (solubility fold change) (ratio); higher = more soluble protein in presence of GTP
Method in brief: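 Eight concentrations, 0.1 to 10 mM, were tested on Jurkat crude lysate for 10 min at room temperature and then 3 min at 37 °C, in three independent experiments. The lysate was solubilised with 0.8% NP40 and benzonase, ultracentrifuged, and the supernatant TMT-labelled for LC-MS/MS. Each value is the fold change against the detergent-processed vehicle in its own replicate, from vsn-normalised intensities.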

Target	NP40-soluble protein abundance (concentration: 0.1mM)	NP40-soluble protein abundance (concentration: 0.5mM)	NP40-soluble protein abundance (concentration: 1mM)	NP40-soluble protein abundance (concentration: 2mM)	NP40-soluble protein abundance (concentration: 4mM)	NP40-soluble protein abundance (concentration: 6mM)	NP40-soluble protein abundance (concentration: 8mM)	NP40-soluble protein abundance (concentration: 10mM)
UniProt Q6PJW8 and related entries	1.01 ± 0.17	0.985 ± 0.17	1.04 ± 0.11	0.991 ± 0.21	0.994 ± 0.16	0.994 ± 0.18	0.943 ± 0.12	0.981 ± 0.15
UniProt Q7Z3B4 and related entries	1.02 ± 0.051	1 ± 0.021	1 ± 0.038	1.01 ± 0.032	1.06 ± 0.062	1.07 ± 0.065	1.12 ± 0.055	1.18 ± 0.092
UniProt Q86WQ0 and related entries	0.973 ± 0.06	0.939 ± 0.017	0.882 ± 0.094	0.9 ± 0.082	0.884 ± 0.14	0.897 ± 0.096	0.849 ± 0.13	0.862 ± 0.099
SNX30 (UniProt Q5VWJ9)	1.29 ± 0.17	1.11 ± 0.15	1.11 ± 0.015	1.12 ± 0.091	1.1 ± 0.088	0.996 ± 0.06	1.1 ± 0.077	1.03 ± 0.037
UniProt Q5VZE5	1.04 ± 0.025	1.08 ± 0.016	1.01 ± 0.021	1.01 ± 0.059	0.99 ± 0.058	0.982 ± 0.018	1.01 ± 0.014	0.964 ± 0.021
UniProt Q7Z2T5	1.05 ± 0.05	1.09 ± 0.014	1.08 ± 0.035	1.21 ± 0.059	1.32 ± 0.072	1.42 ± 0.08	1.44 ± 0.059	1.57 ± 0.024
UniProt Q7Z7A1 and related entries	0.971 ± 0.11	0.957 ± 0.12	0.934 ± 0.069	0.898 ± 0.057	0.956 ± 0.14	0.937 ± 0.096	0.989 ± 0.11	0.912 ± 0.081
LMBRD2 (UniProt Q68DH5)	0.993 ± 0.086	1.07 ± 0.14	1.07 ± 0.08	1.05 ± 0.14	0.966 ± 0.12	1.01 ± 0.1	1.09 ± 0.074	1.04 ± 0.053
UniProt Q86TI2 and related entries	1.11 ± 0.033	1.08 ± 0.015	1.01 ± 0.026	0.995 ± 0.05	1.01 ± 0.065	0.919 ± 0.043	0.933 ± 0.04	0.909 ± 0.089
UniProt Q86W56 and related entries	1.06 ± 0.09	1.07 ± 0.11	1.01 ± 0.081	1.02 ± 0.094	0.994 ± 0.071	1 ± 0.085	1.02 ± 0.085	0.998 ± 0.073
TMED4 (UniProt Q7Z7H5)	1 ± 0.02	1.03 ± 0.035	0.953 ± 0.055	0.959 ± 0.0098	0.943 ± 0.029	0.955 ± 0.047	0.966 ± 0.052	0.938 ± 0.068
TTC19 (UniProt Q6DKK2)	0.892 ± 0.1	0.806 ± 0.038	1.03 ± 0.15	1.03 ± 0.091	0.984 ± 0.13	1 ± 0.097	0.926 ± 0.13	0.98 ± 0.17
UniProt Q71SY5 and related entries	1.07 ± 0.054	1.01 ± 0.017	1.11 ± 0.053	1.12 ± 0.082	1.04 ± 0.024	1.08 ± 0.038	1.19 ± 0.14	1.13 ± 0.12
UniProt Q86W92 and related entries	1.11 ± 0.017	1.063 ± 0.0067	1.07 ± 0.024	1 ± 0.024	0.977 ± 0.036	1.08 ± 0.019	1.11 ± 0.075	1.1 ± 0.06
UniProt Q6PI26 and related entries	1.03 ± 0.038	1.04 ± 0.082	1.08 ± 0.1	1.02 ± 0.092	1.03 ± 0.13	1 ± 0.051	1.04 ± 0.14	0.997 ± 0.067
DHRS11 (UniProt Q6UWP2)	0.967 ± 0.1	0.986 ± 0.087	0.964 ± 0.08	0.95 ± 0.034	0.909 ± 0.079	0.995 ± 0.14	0.912 ± 0.098	0.997 ± 0.03
BLOC1S3 (UniProt Q6QNY0)	0.942 ± 0.0097	0.958 ± 0.078	1.11 ± 0.048	1.1 ± 0.072	1.08 ± 0.043	1.09 ± 0.029	1.04 ± 0.15	1.07 ± 0.032
UniProt Q86V81	0.939 ± 0.019	0.943 ± 0.079	1.12 ± 0.036	1.25 ± 0.097	1.5 ± 0.047	1.73 ± 0.054	1.95 ± 0.1	2.52 ± 0.13
UniProt Q6UN15 and related entries	0.987 ± 0.086	1.09 ± 0.026	1.207 ± 0.0064	1.21 ± 0.052	1.267 ± 0.0056	1.329 ± 0.0046	1.38 ± 0.1	1.35 ± 0.093
UniProt Q86TP1 and related entries	0.954 ± 0.041	0.991 ± 0.085	0.946 ± 0.046	0.964 ± 0.12	0.918 ± 0.1	0.936 ± 0.1	0.938 ± 0.059	0.913 ± 0.091
LYPLAL1 (UniProt Q5VWZ2)	1.16 ± 0.025	1 ± 0.053	1.04 ± 0.06	0.965 ± 0.078	1.03 ± 0.1	0.907 ± 0.073	0.959 ± 0.083	0.875 ± 0.12
UniProt Q86W42 and related entries	1.21 ± 0.14	1.35 ± 0.28	1.46 ± 0.27	1.87 ± 0.52	2.27 ± 0.61	2.29 ± 0.68	2.26 ± 0.54	2.31 ± 0.65
FASTKD5 (UniProt Q7L8L6)	1.26 ± 0.054	0.996 ± 0.057	1.084 ± 0.0057	1 ± 0.092	1.01 ± 0.034	0.909 ± 0.014	1.04 ± 0.011	0.8269 ± 0.0066
UniProt Q709C8 and related entries	1.04 ± 0.042	1.05 ± 0.079	1 ± 0.034	1.03 ± 0.062	1.02 ± 0.084	0.999 ± 0.069	0.998 ± 0.053	0.961 ± 0.06
EDC4 (UniProt Q6P2E9)	0.984 ± 0.029	1 ± 0.037	1.01 ± 0.045	1.01 ± 0.029	1.01 ± 0.039	1.02 ± 0.032	1.02 ± 0.057	1.04 ± 0.046
HDDC2 (UniProt Q7Z4H3)	0.793 ± 0.11	0.745 ± 0.12	1.05 ± 0.18	1.01 ± 0.091	0.978 ± 0.12	0.99 ± 0.13	0.88 ± 0.25	1.08 ± 0.2
GRAMD4 (UniProt Q6IC98)	1.01 ± 0.04	1.01 ± 0.011	0.963 ± 0.047	0.962 ± 0.045	0.951 ± 0.031	0.956 ± 0.035	0.9823 ± 0.0076	0.956 ± 0.041
MBLAC2 (UniProt Q68D91)	1.09 ± 0.12	1.03 ± 0.1	1 ± 0.11	1.02 ± 0.13	1.01 ± 0.11	0.941 ± 0.13	0.952 ± 0.097	0.929 ± 0.14
UniProt Q75N03 and related entries	0.988 ± 0.15	1.03 ± 0.11	1.07 ± 0.057	1.09 ± 0.11	0.983 ± 0.097	1.05 ± 0.097	0.986 ± 0.075	1.09 ± 0.11
SETD3 (UniProt Q86TU7)	1.05 ± 0.028	1.03 ± 0.018	0.976 ± 0.04	0.992 ± 0.066	0.977 ± 0.075	0.963 ± 0.02	0.995 ± 0.03	0.971 ± 0.054

2 entries from above in another layout:
UniProt Q7Z3B4 and related entries
  NP40-soluble protein abundance (concentration: 0.1mM): 1.02 ± 0.051
  NP40-soluble protein abundance (concentration: 0.5mM): 1 ± 0.021
  NP40-soluble protein abundance (concentration: 1mM): 1 ± 0.038
  NP40-soluble protein abundance (concentration: 2mM): 1.01 ± 0.032
  NP40-soluble protein abundance (concentration: 4mM): 1.06 ± 0.062
  NP40-soluble protein abundance (concentration: 6mM): 1.07 ± 0.065
  NP40-soluble protein abundance (concentration: 8mM): 1.12 ± 0.055
  NP40-soluble protein abundance (concentration: 10mM): 1.18 ± 0.092
UniProt Q86WQ0 and related entries
  NP40-soluble protein abundance (concentration: 0.1mM): 0.973 ± 0.06
  NP40-soluble protein abundance (concentration: 0.5mM): 0.939 ± 0.017
  NP40-soluble protein abundance (concentration: 1mM): 0.882 ± 0.094
  NP40-soluble protein abundance (concentration: 2mM): 0.9 ± 0.082
  NP40-soluble protein abundance (concentration: 4mM): 0.884 ± 0.14
  NP40-soluble protein abundance (concentration: 6mM): 0.897 ± 0.096
  NP40-soluble protein abundance (concentration: 8mM): 0.849 ± 0.13
  NP40-soluble protein abundance (concentration: 10mM): 0.862 ± 0.099
